Results reported in ChEMBL document CHEMBL1140614, “In silico and in vitro filters for the fast estimation of skin permeation and distribution of new chemical entities” (J Med Chem, 2007).

Test system: Zone of skin
Conditions: human

SMILES: Oc1cccc(O)c1 [RESORCINOL]
- log Kp: -7.18
